Data as given in the supplement of paper PMC10849652.
The list shows a part of the results.

Amino acid sequences for entries named in this document (tags omitted). A change or cut given only in a name is not applied to a line headed by its entry.
UniProt P30101, whole entry, looked up: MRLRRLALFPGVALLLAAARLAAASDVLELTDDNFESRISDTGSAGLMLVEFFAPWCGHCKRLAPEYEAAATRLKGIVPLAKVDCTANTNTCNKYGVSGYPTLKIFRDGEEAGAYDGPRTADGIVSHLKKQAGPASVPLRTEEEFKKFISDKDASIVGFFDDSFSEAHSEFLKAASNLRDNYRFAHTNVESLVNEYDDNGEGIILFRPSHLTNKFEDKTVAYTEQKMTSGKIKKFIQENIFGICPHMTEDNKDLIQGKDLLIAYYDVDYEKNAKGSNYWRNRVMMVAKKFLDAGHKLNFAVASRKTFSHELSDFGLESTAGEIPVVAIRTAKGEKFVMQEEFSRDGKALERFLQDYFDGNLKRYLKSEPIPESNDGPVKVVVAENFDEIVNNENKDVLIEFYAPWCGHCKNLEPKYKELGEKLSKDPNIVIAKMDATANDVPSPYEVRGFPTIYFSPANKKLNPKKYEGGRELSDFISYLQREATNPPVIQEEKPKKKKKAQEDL
UniProt Q8NCN5: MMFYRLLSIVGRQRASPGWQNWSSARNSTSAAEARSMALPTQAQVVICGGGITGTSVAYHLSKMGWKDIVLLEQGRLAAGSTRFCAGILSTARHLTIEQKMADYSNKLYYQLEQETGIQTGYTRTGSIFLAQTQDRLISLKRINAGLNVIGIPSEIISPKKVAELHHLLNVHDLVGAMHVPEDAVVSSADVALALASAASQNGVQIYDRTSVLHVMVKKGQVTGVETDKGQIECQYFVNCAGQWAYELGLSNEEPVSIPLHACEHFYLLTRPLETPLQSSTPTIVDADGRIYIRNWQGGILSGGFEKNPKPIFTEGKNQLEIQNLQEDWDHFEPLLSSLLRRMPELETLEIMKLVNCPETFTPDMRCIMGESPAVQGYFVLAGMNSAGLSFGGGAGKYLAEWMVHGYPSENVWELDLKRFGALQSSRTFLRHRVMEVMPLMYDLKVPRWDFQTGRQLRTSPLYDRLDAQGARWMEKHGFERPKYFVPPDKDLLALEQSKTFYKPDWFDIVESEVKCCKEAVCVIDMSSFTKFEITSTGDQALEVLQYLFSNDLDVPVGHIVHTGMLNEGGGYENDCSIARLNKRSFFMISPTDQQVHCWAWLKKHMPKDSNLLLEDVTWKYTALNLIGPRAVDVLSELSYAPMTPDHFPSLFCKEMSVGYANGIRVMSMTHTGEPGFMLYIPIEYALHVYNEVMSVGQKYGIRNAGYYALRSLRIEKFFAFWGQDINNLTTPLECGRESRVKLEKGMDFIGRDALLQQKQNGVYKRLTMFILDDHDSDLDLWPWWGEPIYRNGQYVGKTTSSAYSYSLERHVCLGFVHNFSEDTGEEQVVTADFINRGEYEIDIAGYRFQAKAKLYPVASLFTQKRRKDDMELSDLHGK
UniProt Q15154: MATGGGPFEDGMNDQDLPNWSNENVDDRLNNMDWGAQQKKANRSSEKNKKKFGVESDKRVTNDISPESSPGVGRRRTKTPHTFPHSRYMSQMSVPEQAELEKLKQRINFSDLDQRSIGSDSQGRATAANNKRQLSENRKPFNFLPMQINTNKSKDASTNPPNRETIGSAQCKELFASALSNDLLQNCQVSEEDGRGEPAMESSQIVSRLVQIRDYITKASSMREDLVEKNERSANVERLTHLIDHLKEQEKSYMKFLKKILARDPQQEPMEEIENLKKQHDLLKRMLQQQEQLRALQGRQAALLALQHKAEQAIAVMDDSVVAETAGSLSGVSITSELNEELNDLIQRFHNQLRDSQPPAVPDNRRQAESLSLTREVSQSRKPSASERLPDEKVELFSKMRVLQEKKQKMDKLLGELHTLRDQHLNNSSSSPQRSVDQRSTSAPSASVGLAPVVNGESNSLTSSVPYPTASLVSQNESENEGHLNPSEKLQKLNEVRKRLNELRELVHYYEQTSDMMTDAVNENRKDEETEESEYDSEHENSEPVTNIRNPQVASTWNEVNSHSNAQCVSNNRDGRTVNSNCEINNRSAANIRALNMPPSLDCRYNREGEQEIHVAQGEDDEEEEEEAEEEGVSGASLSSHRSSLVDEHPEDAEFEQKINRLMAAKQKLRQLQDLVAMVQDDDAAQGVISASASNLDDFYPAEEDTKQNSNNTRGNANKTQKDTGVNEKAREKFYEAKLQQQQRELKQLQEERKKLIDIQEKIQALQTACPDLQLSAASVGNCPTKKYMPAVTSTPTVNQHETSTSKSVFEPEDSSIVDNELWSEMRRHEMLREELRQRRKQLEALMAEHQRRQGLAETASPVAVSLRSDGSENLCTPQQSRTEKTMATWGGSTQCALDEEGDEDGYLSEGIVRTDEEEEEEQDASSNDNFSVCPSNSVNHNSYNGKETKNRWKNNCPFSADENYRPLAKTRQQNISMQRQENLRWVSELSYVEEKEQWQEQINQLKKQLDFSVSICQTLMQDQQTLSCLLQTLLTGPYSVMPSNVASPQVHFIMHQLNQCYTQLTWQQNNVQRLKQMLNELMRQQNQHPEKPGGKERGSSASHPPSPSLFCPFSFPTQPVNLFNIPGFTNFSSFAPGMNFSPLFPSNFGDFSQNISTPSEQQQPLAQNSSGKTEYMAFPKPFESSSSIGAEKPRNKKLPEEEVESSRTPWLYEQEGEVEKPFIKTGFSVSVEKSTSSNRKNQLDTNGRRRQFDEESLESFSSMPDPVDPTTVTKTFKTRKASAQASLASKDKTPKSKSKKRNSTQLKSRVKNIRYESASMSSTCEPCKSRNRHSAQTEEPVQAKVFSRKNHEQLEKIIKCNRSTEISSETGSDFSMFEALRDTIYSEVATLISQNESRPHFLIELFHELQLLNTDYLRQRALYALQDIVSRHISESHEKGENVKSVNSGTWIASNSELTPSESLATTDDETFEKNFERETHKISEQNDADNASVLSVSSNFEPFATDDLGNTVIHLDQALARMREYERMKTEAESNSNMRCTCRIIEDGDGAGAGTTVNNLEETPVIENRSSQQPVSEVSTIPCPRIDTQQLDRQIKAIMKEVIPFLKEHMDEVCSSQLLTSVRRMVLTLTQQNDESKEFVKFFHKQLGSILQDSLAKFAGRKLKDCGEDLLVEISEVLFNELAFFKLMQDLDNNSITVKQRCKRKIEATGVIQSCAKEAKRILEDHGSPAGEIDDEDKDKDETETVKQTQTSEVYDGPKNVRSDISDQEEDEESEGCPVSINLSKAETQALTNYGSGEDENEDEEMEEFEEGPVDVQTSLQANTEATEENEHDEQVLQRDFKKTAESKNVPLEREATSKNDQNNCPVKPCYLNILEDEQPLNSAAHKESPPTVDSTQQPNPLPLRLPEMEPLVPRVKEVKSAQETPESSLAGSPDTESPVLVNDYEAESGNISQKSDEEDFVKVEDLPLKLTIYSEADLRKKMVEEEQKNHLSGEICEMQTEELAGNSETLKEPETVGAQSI
UniProt Q9BVG4: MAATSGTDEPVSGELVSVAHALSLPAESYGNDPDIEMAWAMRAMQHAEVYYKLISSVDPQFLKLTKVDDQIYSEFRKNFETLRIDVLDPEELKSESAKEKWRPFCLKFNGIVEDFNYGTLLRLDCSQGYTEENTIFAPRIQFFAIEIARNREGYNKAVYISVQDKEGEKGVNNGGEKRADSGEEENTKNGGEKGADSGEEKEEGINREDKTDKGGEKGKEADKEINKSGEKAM
UniProt Q96RG2: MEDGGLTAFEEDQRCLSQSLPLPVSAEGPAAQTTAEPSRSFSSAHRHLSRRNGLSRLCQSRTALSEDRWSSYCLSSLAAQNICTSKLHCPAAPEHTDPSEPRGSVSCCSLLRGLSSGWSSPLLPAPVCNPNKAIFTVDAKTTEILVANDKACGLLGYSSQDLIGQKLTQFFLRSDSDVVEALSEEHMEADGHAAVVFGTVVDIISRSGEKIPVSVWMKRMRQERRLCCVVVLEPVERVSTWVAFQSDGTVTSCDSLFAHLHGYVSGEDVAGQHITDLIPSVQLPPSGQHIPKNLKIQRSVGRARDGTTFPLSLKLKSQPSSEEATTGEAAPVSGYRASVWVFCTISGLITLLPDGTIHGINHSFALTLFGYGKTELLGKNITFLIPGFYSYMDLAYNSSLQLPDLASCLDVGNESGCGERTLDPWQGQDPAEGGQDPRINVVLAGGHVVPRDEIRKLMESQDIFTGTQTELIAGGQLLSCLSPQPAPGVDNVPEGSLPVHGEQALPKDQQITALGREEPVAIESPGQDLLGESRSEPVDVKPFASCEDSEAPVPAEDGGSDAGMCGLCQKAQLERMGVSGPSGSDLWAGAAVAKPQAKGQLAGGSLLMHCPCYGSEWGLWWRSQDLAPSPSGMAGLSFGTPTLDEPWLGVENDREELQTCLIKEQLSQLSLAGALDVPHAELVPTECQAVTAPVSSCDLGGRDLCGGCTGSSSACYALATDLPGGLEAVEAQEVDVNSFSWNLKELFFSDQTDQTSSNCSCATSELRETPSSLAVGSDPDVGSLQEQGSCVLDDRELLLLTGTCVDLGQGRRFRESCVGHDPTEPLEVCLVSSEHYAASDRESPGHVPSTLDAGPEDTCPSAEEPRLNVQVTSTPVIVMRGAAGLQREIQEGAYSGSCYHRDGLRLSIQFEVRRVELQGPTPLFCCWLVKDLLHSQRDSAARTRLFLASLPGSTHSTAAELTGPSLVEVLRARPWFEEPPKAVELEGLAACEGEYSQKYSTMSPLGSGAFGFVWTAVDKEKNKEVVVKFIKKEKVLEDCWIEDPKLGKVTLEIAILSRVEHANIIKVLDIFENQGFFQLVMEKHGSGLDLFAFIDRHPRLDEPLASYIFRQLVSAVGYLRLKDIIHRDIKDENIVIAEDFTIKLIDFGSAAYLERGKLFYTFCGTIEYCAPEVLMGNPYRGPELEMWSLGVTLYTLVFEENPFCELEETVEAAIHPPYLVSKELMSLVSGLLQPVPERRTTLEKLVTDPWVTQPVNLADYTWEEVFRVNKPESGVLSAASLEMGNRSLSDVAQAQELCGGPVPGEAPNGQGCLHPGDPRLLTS
UniProt Q9NWT1: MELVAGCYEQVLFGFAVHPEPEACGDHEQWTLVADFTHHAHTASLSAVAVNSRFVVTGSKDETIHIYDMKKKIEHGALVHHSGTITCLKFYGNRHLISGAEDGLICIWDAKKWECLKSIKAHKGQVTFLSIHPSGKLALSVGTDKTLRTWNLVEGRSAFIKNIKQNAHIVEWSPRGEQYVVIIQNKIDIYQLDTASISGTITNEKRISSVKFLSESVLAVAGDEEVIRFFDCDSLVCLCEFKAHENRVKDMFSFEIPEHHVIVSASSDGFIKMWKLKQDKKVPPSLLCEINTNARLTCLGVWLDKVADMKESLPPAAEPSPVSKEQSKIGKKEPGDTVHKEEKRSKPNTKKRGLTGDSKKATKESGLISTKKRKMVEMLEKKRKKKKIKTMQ
UniProt O75459: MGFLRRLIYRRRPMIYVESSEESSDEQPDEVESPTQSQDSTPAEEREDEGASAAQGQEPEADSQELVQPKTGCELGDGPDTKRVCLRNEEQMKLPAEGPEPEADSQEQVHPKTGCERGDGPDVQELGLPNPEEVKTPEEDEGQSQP
UniProt Q96AQ6: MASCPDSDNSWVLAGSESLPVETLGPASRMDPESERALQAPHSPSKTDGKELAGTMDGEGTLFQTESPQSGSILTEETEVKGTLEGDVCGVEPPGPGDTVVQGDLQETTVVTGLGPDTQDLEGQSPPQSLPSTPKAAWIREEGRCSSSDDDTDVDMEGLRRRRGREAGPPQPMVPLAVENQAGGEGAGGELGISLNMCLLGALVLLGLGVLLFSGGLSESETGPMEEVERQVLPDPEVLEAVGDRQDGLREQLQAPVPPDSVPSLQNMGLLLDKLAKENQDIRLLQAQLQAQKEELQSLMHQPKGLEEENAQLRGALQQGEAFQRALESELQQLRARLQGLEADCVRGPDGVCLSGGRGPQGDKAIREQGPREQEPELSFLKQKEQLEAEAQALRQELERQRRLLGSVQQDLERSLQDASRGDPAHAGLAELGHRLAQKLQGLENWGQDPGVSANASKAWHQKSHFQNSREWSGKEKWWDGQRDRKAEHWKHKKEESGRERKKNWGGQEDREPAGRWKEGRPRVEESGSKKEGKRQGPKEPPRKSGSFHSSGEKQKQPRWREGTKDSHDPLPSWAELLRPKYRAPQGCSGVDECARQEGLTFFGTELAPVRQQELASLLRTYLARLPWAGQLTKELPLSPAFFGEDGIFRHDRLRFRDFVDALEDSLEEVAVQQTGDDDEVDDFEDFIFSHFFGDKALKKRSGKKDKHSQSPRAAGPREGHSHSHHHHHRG
UniProt Q99497, whole entry, looked up: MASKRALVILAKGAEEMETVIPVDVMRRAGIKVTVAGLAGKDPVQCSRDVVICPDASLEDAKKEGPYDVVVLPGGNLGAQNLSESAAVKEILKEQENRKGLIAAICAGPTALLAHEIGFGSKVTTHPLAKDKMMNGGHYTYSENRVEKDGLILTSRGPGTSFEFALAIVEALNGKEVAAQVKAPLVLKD

Legend:
Assay in all cases: log2 fold change, soluble protein after heating vs DMSO (PISA); higher = thermal stabilisation; K562 cells, 10 uM, 30 min; active = over 0.2 and 3.5 SD of the protein, either way, in both replicates (recomputed)
saracatinib = compound: CN1CCN(CCOc2cc(OC3CCOCC3)c3c(Nc4c(Cl)ccc5c4OCO5)ncnc3c2)CC1 [saracatinib]
Summary of the method: (§1)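 Thermal stability values are relative to control samples and come from duplicates. They are expressed as log2 fold changes. For measurement, K562 cells (2×10^6 cells/mL) received 10 μM compound for 30 min, and aliquots were heated for 3 min over 48°C-58°C, pooled, and extracted at 4°C in PBS with 0.5% NP-40. Soluble protein, the supernatant after 21,000xg for 90 min, was quantified by TMTpro 16plex LC-MS/MS with equalised channel sums.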

sotrastaurin = compound: CN1CCN(c2nc(C3=C(c4c[nH]c5ccccc45)C(=O)NC3=O)c3ccccc3n2)CC1 [sotrastaurin]
Summary of the method: as §1

alvocidib = compound: CN1CC[C@H](c2c(O)cc(O)c3c(=O)cc(-c4ccccc4Cl)oc23)[C@H](O)C1 [alvocidib]
Summary of the method: as §1

Tubastatin A = compound: CN1CCc2c(c3ccccc3n2Cc2ccc(C(=O)NO)cc2)C1 [Tubastatin A]
Summary of the method: as §1

[1] = compound: CNC(=O)C1=CC=CC=C1NC2=NC(=NC=C2Cl)NC3=C(C=C(C=C3)N4CCOCC4)OC
Summary of the method: as §1

defactinib = compound: CNC(=O)c1ccc(Nc2ncc(C(F)(F)F)c(NCc3nccnc3N(C)S(C)(=O)=O)n2)cc1 [defactinib]
Summary of the method: as §1

rucaparib = compound: CNCc1ccc(-c2[nH]c3cc(F)cc4c3c2CCNC4=O)cc1 [rucaparib]
Summary of the method: as §1

[2] = compound: CNc1nc(-c2ccc3c(N)n[nH]c3c2)cc(N2C[C@@H](C(=O)NC3CCCCC3)CC[C@H]2C)n1
Summary of the method: as §1

encorafenib = compound: COC(=O)N[C@@H](C)CNc1nccc(-c2cn(C(C)C)nc2-c2cc(Cl)cc(NS(C)(=O)=O)c2F)n1 [encorafenib]
Summary of the method: as §1

[3] = compound: COC(=O)[C@H](CCSC)NC(=O)C1=C(C=C(C=C1)NC[C@H](CS)N)C2=CC=CC=C2
Summary of the method: as §1

[4] = compound: COC1=CC=C(C=C1)CN2C=CC3=C2C=C(C=C3)C(=O)NO
Summary of the method: as §1

filanesib = compound: CON(C)C(=O)N1N=C(c2cc(F)ccc2F)S[C@@]1(CCCN)c1ccccc1 [filanesib]
Summary of the method: as §1

zotarolimus = compound: CO[C@H]1C[C@@H]2CC[C@@H](C)[C@@](O)(O2)C(=O)C(=O)N2CCCC[C@H]2C(=O)O[C@H]([C@H](C)C[C@@H]2CC[C@H](n3cnnn3)[C@H](OC)C2)CC(=O)[C@H](C)/C=C(\C)[C@@H](O)[C@@H](OC)C(=O)[C@H](C)C[C@H](C)/C=C/C=C/C=C/1C [zotarolimus]
Summary of the method: as §1

idasanutlin = compound: COc1cc(C(=O)O)ccc1NC(=O)[C@@H]1N[C@@H](CC(C)(C)C)[C@](C#N)(c2ccc(Cl)cc2F)[C@H]1c1cccc(Cl)c1F [idasanutlin]
Summary of the method: as §1

alisertib = compound: COc1cc(Nc2ncc3c(n2)-c2ccc(Cl)cc2C(c2c(F)cccc2OC)=NC3)ccc1C(=O)O [alisertib]
Summary of the method: as §1

[5] = compound: COc1cc2nc(-c3cc(F)ccc3O)nc(N[C@@H]3CNC[C@H]3C(C)(C)O)c2cc1OC
Summary of the method: as §1

gefitinib = compound: COc1cc2ncnc(Nc3ccc(F)c(Cl)c3)c2cc1OCCCN1CCOCC1 [gefitinib]
Summary of the method: as §1

[6] = compound: COc1cccc2cc(-c3nc([C@H]4CC[C@H](C(=O)O)CC4)n4ncnc(N)c34)[nH]c12
Summary of the method: as §1

lapatinib = compound: CS(=O)(=O)CCNCc1ccc(-c2ccc3ncnc(Nc4ccc(OCc5cccc(F)c5)c(Cl)c4)c3c2)o1 [lapatinib]
Summary of the method: as §1

pictilisib = compound: CS(=O)(=O)N1CCN(Cc2cc3nc(-c4cccc5[nH]ncc45)nc(N4CCOCC4)c3s2)CC1 [pictilisib]
Summary of the method: as §1

Measured: log2 fold change

PEX14 (UniProt O75381)
inactive: saracatinib 0.024 | sotrastaurin 0 | alvocidib 0.02 | Tubastatin A -0.023 | [1] -0.019 | defactinib 0.019 | rucaparib -0.076 | [2] -0.014 | encorafenib 0.022 | [3] -0.003 | [4] 0.096 | filanesib -0.021 | zotarolimus 0.001 | idasanutlin 0.014 | alisertib -0.004 | [5] 0.006 | gefitinib -0.011 | [6] 0.013 | lapatinib -0.026 | pictilisib -0.007

PAK2 (UniProt Q13177)
inactive: saracatinib -0.002 | sotrastaurin 0.007 | alvocidib -0.033 | Tubastatin A 0.004 | [1] 0.017 | defactinib -0.028 | rucaparib -0.016 | [2] 0.004 | encorafenib -0.005 | [3] 0.006 | [4] -0.004 | filanesib -0.021 | zotarolimus 0.012 | idasanutlin -0.052 | alisertib 0.009 | [5] -0.006 | gefitinib -0.034 | [6] 0.047 | lapatinib -0.012 | pictilisib 0.003

PDIA3 (UniProt P30101)
inactive: saracatinib -0.117 | sotrastaurin -0.08 | alvocidib 0.046 | Tubastatin A 0.004 | [1] 0.02 | defactinib 0.063 | rucaparib 0.017 | [2] 0.004 | encorafenib 0.095 | [3] -0.02 | [4] 0.004 | filanesib 0.081 | zotarolimus 0.074 | idasanutlin 0.053 | alisertib -0.108 | [5] -0.012 | gefitinib 0.001 | [6] -0.102 | lapatinib 0.064 | pictilisib -0.119

PAK3 isoform 3 (UniProt O75914)
inactive: saracatinib 0.086 | sotrastaurin -0.003 | alvocidib -0.026 | Tubastatin A 0.001 | [1] 0.002 | defactinib -0.015 | rucaparib -0.038 | [2] -0.011 | encorafenib 0.029 | [3] -0.022 | [4] -0.012 | filanesib -0.117 | zotarolimus 0.016 | idasanutlin -0.013 | alisertib -0.051 | [5] -0.019 | gefitinib 0.006 | [6] -0.005 | lapatinib 0.011 | pictilisib -0.037

PDK1 (UniProt Q15118)
inactive: saracatinib -0.009 | sotrastaurin 0.066 | alvocidib 0.002 | Tubastatin A -0.019 | [1] 0.077 | defactinib 0.043 | rucaparib 0.017 | [2] 0.129 | encorafenib -0.148 | [3] -0.037 | [4] -0.051 | filanesib -0.03 | zotarolimus -0.045 | idasanutlin -0.056 | alisertib -0.151 | [5] 0.189 | gefitinib -0.026 | [6] 0.03 | lapatinib -0.056 | pictilisib 0.139

PCNA (UniProt P12004)
inactive: saracatinib 0.001 | sotrastaurin 0.014 | alvocidib -0.009 | Tubastatin A -0.036 | [1] -0.025 | defactinib 0.009 | rucaparib -0.049 | [2] -0.049 | encorafenib -0.01 | [3] 0.017 | [4] 0.014 | filanesib -0.094 | zotarolimus -0.021 | idasanutlin -0.036 | alisertib -0.052 | [5] -0.003 | gefitinib -0.002 | [6] 0.07 | lapatinib -0.012 | pictilisib 0.006

PDPR (UniProt Q8NCN5)
inactive: saracatinib -0.004 | sotrastaurin -0.01 | alvocidib -0.11 | Tubastatin A 0.001 | [1] 0.101 | defactinib -0.053 | rucaparib -0.009 | [2] -0.031 | encorafenib -0.018 | [3] -0.023 | [4] 0.028 | filanesib -0.023 | zotarolimus 0.044 | idasanutlin -0.029 | alisertib -0.041 | [5] -0.062 | gefitinib 0.034 | [6] 0.009 | lapatinib 0 | pictilisib 0.062

PCM1 isoform 5 (UniProt Q15154)
inactive: saracatinib -0.139 | sotrastaurin -0.088 | alvocidib 0.098 | Tubastatin A 0.051 | [1] -0.018 | defactinib 0.029 | rucaparib 0.166 | [2] 0.049 | encorafenib 0.13 | [3] 0.025 | [4] 0.013 | filanesib 0.155 | zotarolimus 0.041 | idasanutlin 0.203 | alisertib -0.146 | [5] -0.011 | gefitinib -0.021 | [6] -0.02 | lapatinib 0.048 | pictilisib 0.001

PBDC1 (UniProt Q9BVG4)
inactive: saracatinib 0.039 | sotrastaurin -0.056 | alvocidib -0.062 | Tubastatin A 0.018 | [1] 0.005 | defactinib -0.061 | rucaparib 0.069 | [2] -0.052 | encorafenib 0.012 | [3] -0.044 | [4] -0.068 | filanesib 0.007 | zotarolimus -0.041 | idasanutlin -0.034 | alisertib -0.058 | [5] 0.073 | gefitinib -0.025 | [6] -0.087 | lapatinib -0.006 | pictilisib 0.03

PASK (UniProt Q96RG2)
inactive: saracatinib 0.082 | sotrastaurin 0.039 | alvocidib -0.022 | Tubastatin A 0.022 | [1] 0.045 | defactinib -0.078 | rucaparib 0.024 | [2] -0.116 | encorafenib 0.052 | [3] 0.029 | [4] -0.018 | filanesib -0.037 | zotarolimus -0.01 | idasanutlin -0.091 | alisertib 0.023 | [5] -0.058 | gefitinib 0.01 | [6] 0.095 | lapatinib 0.057 | pictilisib 0.02

PAK1IP1 (UniProt Q9NWT1)
inactive: saracatinib -0.061 | sotrastaurin 0.077 | alvocidib 0.389 | Tubastatin A 0.103 | [1] 0.027 | defactinib 0.529 | rucaparib 0.35 | [2] 0.104 | encorafenib 0.162 | [3] 0.023 | [4] -0.111 | filanesib 0.283 | zotarolimus 0.02 | idasanutlin 0.167 | alisertib -0.104 | [5] -0.056 | gefitinib -0.082 | [6] -0.196 | lapatinib 0.127 | pictilisib -0.061

Quoted at random: two entries already listed.
PCM1 isoform 5 (UniProt Q15154)
inactive: saracatinib -0.139 | sotrastaurin -0.088 | alvocidib 0.098 | Tubastatin A 0.051 | [1] -0.018 | defactinib 0.029 | rucaparib 0.166 | [2] 0.049 | encorafenib 0.13 | [3] 0.025 | [4] 0.013 | filanesib 0.155 | zotarolimus 0.041 | idasanutlin 0.203 | alisertib -0.146 | [5] -0.011 | gefitinib -0.021 | [6] -0.02 | lapatinib 0.048 | pictilisib 0.001

PBDC1 (UniProt Q9BVG4)
inactive: saracatinib 0.039 | sotrastaurin -0.056 | alvocidib -0.062 | Tubastatin A 0.018 | [1] 0.005 | defactinib -0.061 | rucaparib 0.069 | [2] -0.052 | encorafenib 0.012 | [3] -0.044 | [4] -0.068 | filanesib 0.007 | zotarolimus -0.041 | idasanutlin -0.034 | alisertib -0.058 | [5] 0.073 | gefitinib -0.025 | [6] -0.087 | lapatinib -0.006 | pictilisib 0.03

More results.

PAFAH1B1 (UniProt P43034)
inactive: saracatinib 0.033 | sotrastaurin 0.063 | alvocidib -0.029 | Tubastatin A -0.047 | [1] -0.015 | defactinib -0.033 | rucaparib -0.031 | [2] -0.004 | encorafenib -0.022 | [3] -0.013 | [4] -0.11 | filanesib -0.013 | zotarolimus 0.015 | idasanutlin -0.009 | alisertib -0.014 | [5] 0.024 | gefitinib 0.008 | [6] 0.046 | lapatinib -0.015 | pictilisib 0.023

PAGE1 (UniProt O75459)
inactive: saracatinib 0.057 | sotrastaurin 0.144 | alvocidib 0.12 | Tubastatin A -0.019 | [1] -0.018 | defactinib 0.04 | rucaparib -0.04 | [2] -0.042 | encorafenib -0.098 | [3] 0.143 | [4] 0.055 | filanesib 0.015 | zotarolimus -0.062 | idasanutlin 0.024 | alisertib -0.048 | [5] -0.034 | gefitinib -0.003 | [6] 0.023 | lapatinib -0.046 | pictilisib -0.02

PBXIP1 (UniProt Q96AQ6)
inactive: saracatinib 0.016 | sotrastaurin -0.029 | alvocidib 0.025 | Tubastatin A 0.012 | [1] 0.005 | defactinib 0.026 | rucaparib 0.05 | [2] -0.091 | encorafenib -0.009 | [3] -0.006 | [4] -0.009 | filanesib 0.017 | zotarolimus 0.038 | idasanutlin 0 | alisertib -0.018 | [5] -0.024 | gefitinib -0.011 | [6] 0.002 | lapatinib 0.002 | pictilisib 0.005

PARK7 (UniProt Q99497)
inactive: saracatinib 0.051 | sotrastaurin 0 | alvocidib -0.051 | Tubastatin A -0.009 | [1] -0.067 | defactinib -0.016 | rucaparib -0.078 | [2] 0.046 | encorafenib 0.049 | [3] 0.009 | [4] 0.059 | filanesib -0.079 | zotarolimus 0.039 | idasanutlin -0.084 | alisertib -0.032 | [5] -0.027 | gefitinib 0.001 | [6] -0.037 | lapatinib 0.027 | pictilisib -0.052

PCYOX1L (UniProt Q8NBM8)
inactive: saracatinib 0.056 | sotrastaurin 0.085 | alvocidib 0.015 | Tubastatin A -0.008 | [1] 0.005 | defactinib -0.02 | rucaparib 0.055 | [2] -0.029 | encorafenib -0.064 | [3] -0.015 | [4] -0.001 | filanesib 0.048 | zotarolimus -0.034 | idasanutlin -0.04 | alisertib -0.08 | [5] -0.041 | gefitinib 0.04 | [6] 0.039 | lapatinib 0.037 | pictilisib 0.021
